Results published in paper PMC6155045.
These are yes or no findings as the source states them, for the method shown. Binding seen in cells or lysates may run through a third protein. Some binding calls cover weakened binding; strength is not graded here.

Sequences of proteins named here, by UniProt entry; tags and fusion partners are left off. Residues count along the entry.
UniProt P19022, residues 160-906: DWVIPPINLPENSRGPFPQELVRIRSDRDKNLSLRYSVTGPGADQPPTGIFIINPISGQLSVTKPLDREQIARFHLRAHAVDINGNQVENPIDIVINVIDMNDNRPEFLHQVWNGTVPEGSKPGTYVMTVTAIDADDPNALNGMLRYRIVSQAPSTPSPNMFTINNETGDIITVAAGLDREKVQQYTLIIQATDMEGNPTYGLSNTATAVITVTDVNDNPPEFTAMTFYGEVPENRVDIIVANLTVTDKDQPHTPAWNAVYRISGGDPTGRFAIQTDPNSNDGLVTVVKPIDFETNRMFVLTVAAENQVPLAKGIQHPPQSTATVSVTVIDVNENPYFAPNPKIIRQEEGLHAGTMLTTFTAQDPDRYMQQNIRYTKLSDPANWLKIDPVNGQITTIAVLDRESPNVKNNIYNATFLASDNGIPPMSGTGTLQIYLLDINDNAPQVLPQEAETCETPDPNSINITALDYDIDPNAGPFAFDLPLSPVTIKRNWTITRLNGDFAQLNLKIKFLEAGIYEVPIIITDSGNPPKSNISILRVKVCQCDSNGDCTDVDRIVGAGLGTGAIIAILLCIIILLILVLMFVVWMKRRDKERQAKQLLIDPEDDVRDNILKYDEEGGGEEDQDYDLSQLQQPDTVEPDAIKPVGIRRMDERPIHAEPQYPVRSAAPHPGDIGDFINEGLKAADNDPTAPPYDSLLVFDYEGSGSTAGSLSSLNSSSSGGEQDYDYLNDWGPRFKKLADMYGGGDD
UniProt P35222: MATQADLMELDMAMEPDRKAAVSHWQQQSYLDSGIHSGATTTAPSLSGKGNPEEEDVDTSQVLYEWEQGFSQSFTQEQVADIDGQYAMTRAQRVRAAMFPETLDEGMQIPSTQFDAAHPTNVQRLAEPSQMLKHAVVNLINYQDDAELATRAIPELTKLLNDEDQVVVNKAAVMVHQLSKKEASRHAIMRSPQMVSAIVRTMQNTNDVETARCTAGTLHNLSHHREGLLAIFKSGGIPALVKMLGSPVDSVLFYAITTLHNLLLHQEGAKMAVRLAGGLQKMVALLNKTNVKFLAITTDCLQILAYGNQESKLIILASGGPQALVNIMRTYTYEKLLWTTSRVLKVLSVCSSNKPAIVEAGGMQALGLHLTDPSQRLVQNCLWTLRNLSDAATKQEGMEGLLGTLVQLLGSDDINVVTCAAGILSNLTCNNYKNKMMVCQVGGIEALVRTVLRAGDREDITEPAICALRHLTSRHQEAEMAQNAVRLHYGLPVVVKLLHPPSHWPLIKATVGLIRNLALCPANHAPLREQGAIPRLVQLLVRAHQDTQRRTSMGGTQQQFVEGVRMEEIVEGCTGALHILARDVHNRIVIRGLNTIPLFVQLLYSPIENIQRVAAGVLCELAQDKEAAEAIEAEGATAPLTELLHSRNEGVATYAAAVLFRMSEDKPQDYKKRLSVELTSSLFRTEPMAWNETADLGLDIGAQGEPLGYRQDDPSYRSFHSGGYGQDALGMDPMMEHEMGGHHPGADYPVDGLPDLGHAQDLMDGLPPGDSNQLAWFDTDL

Target: N-cadherin (human (endogenous in primary CLL cells)) (UniProt P19022)
Assay: co-IP; N-cadherin (Fig. 5b) or β-catenin immunoprecipitated from CLL lysates derived from mono-cultures or from co-cultures with EL08-1D2 cells; endogenous proteins

Substance: β-catenin (from UniProt P35222 1-781)
- binding: binds
